# Measured values: patent publication US20240247030A1 (Seagen Inc., priority 2014, published 2024)
# Experiment: general procedure: solution-phase peptide synthesis
# Conditions: for conjugation yield: conjugation step
Substance,step yield (late stage modification step),also measured
"(2S,3S,4S,5R,6S)-6-(2-(3-((S)-3-amino-2-(2,5-dioxo-2,5-dihydro-1H-pyrrol-1-yl)propanamido)propanamido)-4-((5S,8S,11S,12R)-11-((S)-sec-butyl)-5,8-diisopropyl-12-(2-((S)-2-((1R,2R)-1-methoxy-2-methyl-3-oxo-3-(((S)-2-phenyl-1-(thiazol-2-yl)ethyl)amino)propyl)pyrrolidin-1-yl)-2-oxoethyl)-4,10-dimethyl-3,6,9-trioxo-2,13-dioxa-4,7,10-triazatetradecyl)phenoxy)-3,4,5-trihydroxytetrahydro-2H-pyran-2-carboxylic acid",99%,
Val-Ala-PAB-TubM,63%,
FMOC-Gluc(O-Allyl)Q-Mep-Ile-Tuv(OAc)-Tup-O-Allyl,,step yield (coupling step): 46%
mDPR(Boc)-Val-Cit-PAB-AE,,conjugation yield: 17%
mDPR-Val-Glu-PABQ-TubM-OH,93%,
"(S)—N-(3-(3-((S)-3-amino-2-(2,5-dioxo-2,5-dihydro-1H-pyrrol-1-yl)propanamido)propanamido)-4-(((2S,3R,4S,5S,6S)-6-carboxy-3,4,5-trihydroxytetrahydro-2H-pyran-2-yl)oxy)benzyl)-1-(((S)-1-(((3R,4S,5S)-3-methoxy-1-((S)-2-((1R,2R)-1-methoxy-2-methyl-3-oxo-3-(((S)-2-phenyl-1-(thiazol-2-yl)ethyl)amino)propyl)pyrrolidin-1-yl)-5-methyl-1-oxoheptan-4-yl)(methyl)amino)-3-methyl-1-oxobutan-2-yl)amino)-N,N,3-trimethyl-1-oxobutan-2-aminium",99%,
"(S)-allyl 2-((2R,3R)-3-((S)-1-((3R,4S,5S)-4-((S)-2-((S)-2-(dimethylamino)-3-methylbutanamido)-N,3-dimethylbutanamido)-3-methoxy-5-methylheptanoyl)pyrrolidin-2-yl)-3-methoxy-2-methylpropanamido)-3-phenylpropanoate",71%,
Boc-Val-Ala-PAB-TubM-OtBu,,conjugation yield: 58%
"(2S,4R)-tert-butyl 4-(2-((1R,3R)-1-acetoxy-3-((2S,3S)—N,3-dimethyl-2-((R)-1-methylpiperidine-2-carboxamido)pentanamido)-4-methylpentyl)thiazole-4-carboxamido)-2-methyl-5-phenylpentanoate",32%,
BOC-Val-Glu(OtBu)-PABQ-TubM-OAllyl,,conjugation yield: 85%
mDPR-Val-Cit-PAB-quaternary amine-AE (mDPR-vcPAB4-AE),99%,
